This note sets out measurements from patent publication US11446292B2 (MedImmune Limited, priority 2019, dated 2022).

This series is described as follows: general procedure: solution-phase peptide synthesis; EEDQ; EDCI.HCl. Particulars: conjugation step.

Substance “tert-butyl (S)-(2-((2-((1-((2-((4-amino-5-oxo-5,6,7,8-tetrahydronaphthalen-1-yl)amino)-2-oxoethyl)amino)-1-oxo-3-phenylpropan-2-yl)amino)-2-oxoethyl) amino)-2-oxoethyl) carbamate” returned a conjugation yield of 80.9% Yield.
